No constants are given. Whether binding was seen depends on the method and setting. For some of these results: Binding seen in cells or lysates may run through a third protein. Some binding calls cover weakened binding; strength is not graded here.
T1: Hes6 (zebrafish) (UniProt Q6P0J1)
T1 sequence: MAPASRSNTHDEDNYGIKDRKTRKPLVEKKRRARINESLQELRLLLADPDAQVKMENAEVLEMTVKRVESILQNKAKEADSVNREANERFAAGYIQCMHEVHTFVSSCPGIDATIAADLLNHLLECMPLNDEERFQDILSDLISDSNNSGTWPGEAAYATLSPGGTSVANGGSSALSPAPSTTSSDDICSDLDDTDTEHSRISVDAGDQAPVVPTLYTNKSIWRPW

Amino acid sequences for entries named in this document (tags omitted).
UniProt Q90477: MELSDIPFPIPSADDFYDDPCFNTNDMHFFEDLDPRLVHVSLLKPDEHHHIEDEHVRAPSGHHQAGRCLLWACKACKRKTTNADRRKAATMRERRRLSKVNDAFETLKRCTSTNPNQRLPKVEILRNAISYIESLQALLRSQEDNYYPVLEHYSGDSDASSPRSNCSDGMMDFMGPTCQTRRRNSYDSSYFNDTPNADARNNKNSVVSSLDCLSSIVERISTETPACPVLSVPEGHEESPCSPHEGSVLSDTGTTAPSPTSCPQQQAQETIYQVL


Legend:
Hes6 (zebrafish) [1] = biological target: T1, Hes6 (zebrafish); assay: MITOMI (mechanically induced trapping of molecular interactions); GFP-tagged Her protein from wheat germ extract immobilised on the microfluidic chip surface with anti-GFP antibody and washed with PBS; mCherry-tagged protein expressed on chip in wheat germ extract with 250 nM Cy5-labelled DNA oligomer; 3 h at room temperature; slope of free against bound mCherry signal as relative affinity
Hes6 (zebrafish) [2] = biological target: T1, Hes6 (zebrafish); assay: co-IP; GFP-tagged Her1, Her7 or Hes6 co-expressed with mCherry-tagged proteins in an in vitro transcription-translation system; immunoprecipitation with a GFP antibody, immunoblot for mCherry

Row | binding (Hes6 (zebrafish) [1]) | binding (Hes6 (zebrafish) [2]) | Molecule
1 | binds | binds | MyoD (myogenic differentiation 1) (from UniProt Q90477 1-275)
2 | binds | binds | Hes6 (protein, UniProt Q6P0J1 1-226) MAPASRSNTHDEDNYGIKDRKTRKPLVEKKRRARINESLQELRLLLADPDAQVKMENAEVLEMTVKRVESILQNKAKEADSVNREANERFAAGYIQCMHEVHTFVSSCPGIDATIAADLLNHLLECMPLNDEERFQDILSDLISDSNNSGTWPGEAAYATLSPGGTSVANGGSSALSPAPSTTSSDDICSDLDDTDTEHSRISVDAGDQAPVVPTLYTNKSIWRPW
